Measured values from patent publication US20230242605A1.
No constants are given. Whether binding was seen depends on the method and setting. In cells and extracts the contact can be indirect. Some entries that bind do so weakly or less than the wild type. Tags and fused reporters may be left off the sequences shown.

Amino acid sequences for entries named in this document (tags omitted). A change or cut given only in a name is not applied to a line headed by its entry. Chains listed by the source or under a name are the forms on record and can include a tag or linker.
HA-tagged BMPR2-E376K (bone morphogenetic protein type 2 receptor, amino acid 376 mutated from glutamic acid to lysine) (Q13873, form named): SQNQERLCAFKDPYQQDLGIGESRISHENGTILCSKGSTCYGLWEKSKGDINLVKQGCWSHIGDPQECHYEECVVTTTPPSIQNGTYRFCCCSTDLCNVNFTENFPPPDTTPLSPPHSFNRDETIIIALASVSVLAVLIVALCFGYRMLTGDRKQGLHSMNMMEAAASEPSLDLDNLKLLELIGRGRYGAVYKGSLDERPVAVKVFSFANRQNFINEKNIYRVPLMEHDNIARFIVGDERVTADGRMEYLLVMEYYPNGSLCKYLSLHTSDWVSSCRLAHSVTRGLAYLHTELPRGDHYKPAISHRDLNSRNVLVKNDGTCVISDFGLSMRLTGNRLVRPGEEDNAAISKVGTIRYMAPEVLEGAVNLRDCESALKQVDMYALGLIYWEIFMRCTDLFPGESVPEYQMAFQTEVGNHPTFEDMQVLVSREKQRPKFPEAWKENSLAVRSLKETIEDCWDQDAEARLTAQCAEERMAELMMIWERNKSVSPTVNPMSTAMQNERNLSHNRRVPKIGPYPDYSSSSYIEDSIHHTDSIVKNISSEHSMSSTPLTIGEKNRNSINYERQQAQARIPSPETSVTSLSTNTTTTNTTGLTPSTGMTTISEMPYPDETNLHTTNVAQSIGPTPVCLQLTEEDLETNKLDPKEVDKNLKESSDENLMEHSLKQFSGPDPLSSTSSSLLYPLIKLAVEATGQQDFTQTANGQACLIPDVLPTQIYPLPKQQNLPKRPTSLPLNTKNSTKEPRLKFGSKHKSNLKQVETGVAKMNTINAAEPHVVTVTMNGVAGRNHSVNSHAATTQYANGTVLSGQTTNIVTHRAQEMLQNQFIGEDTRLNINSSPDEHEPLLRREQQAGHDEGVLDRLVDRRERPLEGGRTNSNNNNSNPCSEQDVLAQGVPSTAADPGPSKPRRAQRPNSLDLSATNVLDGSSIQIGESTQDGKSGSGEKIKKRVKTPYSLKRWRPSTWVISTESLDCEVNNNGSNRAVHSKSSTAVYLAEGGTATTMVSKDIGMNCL

How the values were obtained:
[1] = biological target: T1, V5-tagged wild-type ACVR1 (activin A type I receptor) (UniProt Q04771); assay: co-immunoprecipitation (anti-HA agarose) from transfected HEK293T lysates, no BMP ligand
T1 sequence (looked up): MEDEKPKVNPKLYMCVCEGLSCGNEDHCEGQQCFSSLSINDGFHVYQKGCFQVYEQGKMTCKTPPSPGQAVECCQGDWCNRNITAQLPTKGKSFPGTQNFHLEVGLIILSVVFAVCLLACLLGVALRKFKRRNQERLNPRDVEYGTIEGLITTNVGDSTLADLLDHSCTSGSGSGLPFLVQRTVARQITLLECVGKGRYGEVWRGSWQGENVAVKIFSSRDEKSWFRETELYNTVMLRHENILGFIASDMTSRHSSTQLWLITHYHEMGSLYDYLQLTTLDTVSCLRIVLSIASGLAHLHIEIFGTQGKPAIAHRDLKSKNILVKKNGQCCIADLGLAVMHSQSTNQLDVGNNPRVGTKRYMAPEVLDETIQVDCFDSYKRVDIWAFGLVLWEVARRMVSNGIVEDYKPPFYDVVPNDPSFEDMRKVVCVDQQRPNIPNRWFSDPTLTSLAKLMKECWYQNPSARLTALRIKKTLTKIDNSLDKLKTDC

[2] = biological target: T1, V5-tagged wild-type ACVR1 (activin A type I receptor); assay: co-immunoprecipitation, western blot
[3] = biological target: T1, V5-tagged wild-type ACVR1 (activin A type I receptor); assay: co-immunoprecipitation (FIG. 3a), no BMP ligand

Measured: binding

HA-tagged BMPR2-E376K (bone morphogenetic protein type 2 receptor, amino acid 376 mutated from glutamic acid to lysine) (from UniProt Q13873 27-1038)
binds: all assays above
